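293T-iDUX4 dual-reporter cells; luminescence of the tet-on Italica luciferase control is read after 24 h. The test concentration is not given here. Percent change in the Italica control signal; more negative values mean stronger inhibition, which points to nonspecific, tet-on or cytotoxic effects.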

Values are in %. Common to all entries: measured here: Italica tet-on control reporter. Part of the compounds only, not a random draw; the main read-out is not listed here.

structure	activity change (%)
C/C=C/c1ccc2c(c1)[C@H]1[C@H](CCN1S(=O)(=O)c1ccccc1F)[C@H](CO)N2	-4.207
COC(=O)[C@H]1[C@H](CO)[C@H]2Cn3c(ccc(/C=C/c4ccccc4)c3=O)[C@@H]1N2Cc1ccccc1F	-12.73
N#C[C@H]1[C@@H](c2ccccc2-c2cccc(F)c2)[C@@H](CO)N1C(=O)NC1CCCCC1	-20.75
C[C@H](CO)N1C[C@H](C)[C@H](CN(C)S(=O)(=O)Cc2ccccc2)OCc2ccccc2-c2c(n(C)c3ccccc23)C1=O	-13.63
CC(C)CC#Cc1ccc([C@H]2[C@H](CO)N3C(=O)CN(C(=O)NC4CCCCC4)C[C@@H]23)cc1	-16.1
C/C=C/c1ccc([C@@H]2[C@H](CO)N(CC3CCCC3)C23CN(C(=O)COC)C3)cc1	-2.021
O=C(CC1CC1)N1CC[C@@H]2[C@H]1c1cc(-c3ccccc3)ccc1N[C@@H]2CO	-9.657
COc1ccc(C#Cc2ccc([C@@H]3[C@H]4CN(C(=O)Cc5cccnc5)CCCCN4[C@H]3CO)cc2)cc1	-21.77
CC(C)CC#Cc1ccc([C@H]2[C@H]3CN(C(=O)c4ccc5c(c4)OCO5)CC(=O)N3[C@H]2CO)cc1	-22.05
COc1ccc(C#Cc2ccc([C@@H]3[C@@H](CO)N4CCCCN(C(=O)Nc5cccc(F)c5)C[C@H]34)cc2)cc1	-23.43
Cc1cccc(-c2ccc([C@H]3[C@H]4CN(Cc5ccncc5)CCCCN4[C@H]3CO)cc2)c1	-19.59
O=C(c1ccc2c(c1)OCO2)N1CC[C@@H]2[C@H](CO)Nc3ccc(-c4ccc(F)cc4)cc3[C@@H]21	-36.98
CN1[C@@H]2c3ccc(/C=C/c4ccccc4)c(=O)n3C[C@@H]2[C@@H](CO)[C@@H]1C(=O)NC1CCCCC1	-18.49
O=C(c1ccc2c(c1)OCO2)N1C[C@@H]2N[C@H](C1)C2c1ccc(-c2ccncc2)cc1 (stereo partly specified)	-0.394
COc1cccc(C#Cc2ccc([C@@H]3[C@@H](CO)N4C(=O)CN(C(=O)Cc5ccccc5)C[C@@H]34)cc2)c1	-20.44
COc1cccc(-c2ccc3c(c2)[C@H]2[C@H](CCN2C(=O)c2ccccc2F)[C@@H](CO)N3C)c1	-71.66
COc1cccc(S(=O)(=O)Nc2ccc3c(c2)[C@H]2C[C@H](CC(=O)NC4CCCCC4)O[C@H](CO)[C@H]2O3)c1	-8.471
C[C@@H]1CN([C@@H](C)CO)C(=O)c2c(c3ccccc3n2C)-c2ccccc2CO[C@H]1CN(C)C(=O)c1cc(Cl)cc(Cl)c1	8.007
O=C(C[C@H]1CC[C@H]2[C@@H](COC[C@H](O)CN2C(=O)Nc2ccc(C(F)(F)F)cc2)O1)NC1Cc2ccccc2C1	-20.87
O=C(NC1CCCCC1)N1CC(=O)N2[C@H](C1)[C@H](c1ccc(-c3cccc(F)c3)cc1)[C@@H]2CO	-11.57
N#Cc1ccc(-c2ccc(C3[C@@H]4CN(C(=O)C5CCOCC5)C[C@H]3N4)cc2)cc1 (stereo partly specified)	9.62
COc1ccccc1S(=O)(=O)N(C)C[C@H]1OCc2ccccc2-c2c(n(C)c3ccccc23)C(=O)N([C@H](C)CO)C[C@@H]1C	-8.215
COc1cccc(S(=O)(=O)N(C)C[C@H]2OCc3ccccc3-c3c(n(C)c4ccccc34)C(=O)N([C@H](C)CO)C[C@@H]2C)c1	-32.7
C/C=C/c1ccc([C@H]2[C@@H](CO)N(CCC(F)(F)F)C23CN(C(=O)CC2CC2)C3)cc1	0.198
COc1ccc(C#Cc2ccc3c(c2)[C@H]2[C@H](CCN2C(=O)c2ccncc2)[C@H](CO)N3)cc1	-9.626
O=C(c1ccncc1)N1CC[C@@H]2[C@H]1c1cc(Br)ccc1N[C@@H]2CO	-26.04
COc1ccccc1NC(=O)N[C@H]1CC[C@@H](CC(=O)N2CCC(Cc3ccccc3)CC2)O[C@@H]1CO	-7.79
C[C@@H]1CN([C@H](C)CO)C(=O)c2c(c3ccccc3n2C)-c2ccccc2CO[C@@H]1CN(C)CC1CCCCC1	2.019
CO[C@@H]1CN(C)C(=O)c2cc(NC(=O)c3ccc(Oc4ccccc4)cc3)ccc2OC[C@H](C)NC[C@H]1C	-45.02
O=C(C1CCCCC1)N1CC2(C1)[C@H](c1ccccc1)[C@H](CO)N2Cc1ccccc1F	-31.71
O=C(Nc1cc(F)ccc1F)N[C@@H]1CC[C@H](CCn2cc(C3CCCCC3)nn2)O[C@@H]1CO	-7.543
O=C(Cc1cccnc1)N1CC(=O)N2[C@H](CO)[C@@H](c3ccc(/C=C/c4ccccc4)cc3)[C@@H]2C1	-13.12
CC(C)CC#Cc1ccc([C@H]2[C@H](CO)N3CCCCN(S(=O)(=O)c4ccc(F)cc4)C[C@@H]23)cc1	1.5
CO[C@H]1CN(C)C(=O)c2ccc(NC(=O)Nc3cccc(Cl)c3)cc2OC[C@H](C)NC[C@@H]1C	-11.35
OC[C@@H]1Nc2ccc(C#Cc3ccc(F)cc3)cc2[C@H]2[C@@H]1CCN2Cc1nccs1	-14.63
O=S(=O)(c1ccccc1)N1C[C@@H]2N[C@H](C1)C2c1ccc(-c2ccc(F)cc2)cc1 (stereo partly specified)	-15.29
O=C(Cc1cccnc1)N1CCCCN2[C@H](CO)[C@H](c3ccc(C#CC4CCCC4)cc3)[C@@H]2C1	-10.5
OC[C@@H]1[C@H](c2ccc(C#CC3CCCC3)cc2)[C@H]2CN(CCC(F)(F)F)CCCCN12	-11.01

Once more, the final 4:

structure	activity change (%)
OC[C@@H]1Nc2ccc(C#Cc3ccc(F)cc3)cc2[C@H]2[C@@H]1CCN2Cc1nccs1	-14.63
O=S(=O)(c1ccccc1)N1C[C@@H]2N[C@H](C1)C2c1ccc(-c2ccc(F)cc2)cc1 (stereo partly specified)	-15.29
O=C(Cc1cccnc1)N1CCCCN2[C@H](CO)[C@H](c3ccc(C#CC4CCCC4)cc3)[C@@H]2C1	-10.5
OC[C@@H]1[C@H](c2ccc(C#CC3CCCC3)cc2)[C@H]2CN(CCC(F)(F)F)CCCCN12	-11.01

Source: PubChem BioAssay AID1224904 (Broad Institute, 2016).